From PMC4873228
Results are given in words; binding and its absence hold for the method and conditions named. Binding seen in cells or lysates may run through a third protein. A result given as binding can be weak or reduced; the word gives no strength. Where a sequence is shown, tags or fusion partners need not be part of it.

What follows are substances tested against T1, UBR::GFP (UBR domain of Ubr3, aa 222-292, with GFP at the carboxyl terminus) (Drosophila) (UniProt Q9W3M3) (assay: co-IP; S2 cells co-transfected with HA::Cos2 or its deletion constructs and GFP, UBR::GFP or Ubr3::GFP; lysate precipitated with anti-GFP agarose overnight at 4°C, blot anti-HA and anti-GFP; lysis buffer 25 mM Tris-HCl pH 7.5, 150 mM NaCl, 1 mM EDTA, 1% NP-40; Ubr3::GFP with HA::Cos2 also after Colchicine (1 ug/ml, 5 hours; interaction not affected) and with co-transfected Hh (interaction strongly increased)).
T1 sequence: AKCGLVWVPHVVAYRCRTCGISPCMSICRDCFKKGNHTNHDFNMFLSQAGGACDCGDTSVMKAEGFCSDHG

Substance	binding
HA::Cos2ΔN1 (Drosophila) (domain or fragment)	no binding
HA::Cos2ΔC3 (Drosophila) (domain or fragment)	binds

Continued, values first:

binding	Substance
binds	HA::Cos2ΔC1 (Drosophila) (domain or fragment)
binds	HA::Cos2ΔC2 (Drosophila) (domain or fragment)
no binding	HA::Cos2ΔN2 (Drosophila) (domain or fragment)
